Data as given in publication PMC4707158.
These are yes or no findings as the source states them, for the method shown. In cells and extracts the contact can be indirect. Some binding calls cover weakened binding; strength is not graded here.

The chains behind the UniProt entries cited, without tags or fusion partners.
UniProt P08047: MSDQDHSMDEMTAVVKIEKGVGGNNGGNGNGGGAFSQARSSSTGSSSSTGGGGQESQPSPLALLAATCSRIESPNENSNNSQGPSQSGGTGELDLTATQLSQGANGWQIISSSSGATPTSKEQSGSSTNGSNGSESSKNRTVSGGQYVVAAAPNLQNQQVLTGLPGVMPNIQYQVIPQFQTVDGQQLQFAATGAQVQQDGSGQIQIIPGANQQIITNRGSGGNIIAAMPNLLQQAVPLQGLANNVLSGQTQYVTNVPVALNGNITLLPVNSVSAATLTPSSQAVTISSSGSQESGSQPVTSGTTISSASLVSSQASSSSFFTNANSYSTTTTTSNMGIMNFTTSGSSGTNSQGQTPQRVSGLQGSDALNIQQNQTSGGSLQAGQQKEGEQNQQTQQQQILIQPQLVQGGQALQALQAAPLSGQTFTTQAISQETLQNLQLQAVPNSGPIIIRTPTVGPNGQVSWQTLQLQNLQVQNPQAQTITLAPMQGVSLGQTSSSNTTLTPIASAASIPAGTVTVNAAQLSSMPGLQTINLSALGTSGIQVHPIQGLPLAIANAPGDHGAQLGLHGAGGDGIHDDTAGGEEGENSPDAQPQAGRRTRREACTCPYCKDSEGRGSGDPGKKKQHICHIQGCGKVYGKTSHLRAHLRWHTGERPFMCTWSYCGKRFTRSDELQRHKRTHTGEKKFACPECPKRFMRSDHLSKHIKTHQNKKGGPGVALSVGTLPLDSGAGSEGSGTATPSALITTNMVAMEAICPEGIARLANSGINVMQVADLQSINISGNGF
UniProt Q9H4L4: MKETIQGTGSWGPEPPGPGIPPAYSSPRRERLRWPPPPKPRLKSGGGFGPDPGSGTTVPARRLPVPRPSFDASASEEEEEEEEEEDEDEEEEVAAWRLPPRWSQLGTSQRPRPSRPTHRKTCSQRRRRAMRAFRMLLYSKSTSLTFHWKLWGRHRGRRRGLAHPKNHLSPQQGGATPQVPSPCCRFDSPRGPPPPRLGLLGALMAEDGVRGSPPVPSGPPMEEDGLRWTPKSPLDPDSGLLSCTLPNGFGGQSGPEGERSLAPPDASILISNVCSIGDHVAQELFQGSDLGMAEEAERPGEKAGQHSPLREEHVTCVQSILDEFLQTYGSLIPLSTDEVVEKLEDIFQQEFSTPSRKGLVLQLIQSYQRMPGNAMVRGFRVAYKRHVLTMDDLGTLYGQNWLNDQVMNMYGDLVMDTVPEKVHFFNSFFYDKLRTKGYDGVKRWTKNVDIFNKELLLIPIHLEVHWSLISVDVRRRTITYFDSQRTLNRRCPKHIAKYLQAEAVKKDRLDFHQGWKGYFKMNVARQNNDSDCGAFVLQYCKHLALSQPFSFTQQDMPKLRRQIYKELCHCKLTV
UniProt P13010: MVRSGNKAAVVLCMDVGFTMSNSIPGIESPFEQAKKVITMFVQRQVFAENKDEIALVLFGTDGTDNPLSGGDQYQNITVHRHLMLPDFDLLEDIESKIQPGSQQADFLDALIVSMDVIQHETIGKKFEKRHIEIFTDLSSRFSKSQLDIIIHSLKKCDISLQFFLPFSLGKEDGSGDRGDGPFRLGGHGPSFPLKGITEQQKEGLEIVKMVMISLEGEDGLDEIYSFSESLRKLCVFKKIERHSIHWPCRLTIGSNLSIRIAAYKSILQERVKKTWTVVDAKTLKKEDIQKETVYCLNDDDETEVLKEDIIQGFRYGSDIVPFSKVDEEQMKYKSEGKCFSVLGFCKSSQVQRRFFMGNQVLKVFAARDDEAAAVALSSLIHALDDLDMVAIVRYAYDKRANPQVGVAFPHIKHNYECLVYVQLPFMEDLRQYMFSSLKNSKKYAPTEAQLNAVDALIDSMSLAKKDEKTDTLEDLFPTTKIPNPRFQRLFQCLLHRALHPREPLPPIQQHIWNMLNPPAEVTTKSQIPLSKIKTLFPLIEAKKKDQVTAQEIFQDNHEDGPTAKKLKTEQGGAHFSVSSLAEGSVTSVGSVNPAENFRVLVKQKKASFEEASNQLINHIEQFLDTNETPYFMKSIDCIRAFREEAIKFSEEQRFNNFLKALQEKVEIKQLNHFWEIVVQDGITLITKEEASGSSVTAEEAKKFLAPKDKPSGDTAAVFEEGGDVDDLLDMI

What was measured:
[1] = molecular target: Specificity protein 1 (Sp1), endogenous (human (endogenous in HEK293T)) (UniProt P08047); test: co-IP; 293T cells transfected with RH-SENP3 or vector for 48 h; IP with anti-RH and with anti-Sp1 antibodies respectively, IB as indicated
[2] = molecular target: RH-SENP3 (UniProt Q9H4L4); test: as above
[3] = molecular target: FLAG-SENP3 (UniProt Q9H4L4); test: co-IP; 293T cells transfected with FLAG-pcDNA or FLAG-SENP3 for 48 h; lysate, co-IP with M2 beads; IB with antibodies against the endogenous proteins
[4] = molecular target: Specificity protein 1 (Sp1), endogenous (human (endogenous in HEK293T)) (UniProt P08047); test: co-IP; 293T cells with or without H2O2 exposure; IP with anti-Sp1 antibody or IgG; IB with anti-SENP3 antibody; both proteins endogenous

With “RH-SENP3 (from UniProt Q9H4L4 1-574) (enzyme)” the binding [1] was “binds”.
For “Specificity protein 1 (Sp1), endogenous (from UniProt P08047 1-785)”, the binding [2] was “binds”.
“XRCC5 (Ku80) (from UniProt P13010 1-732)” was tested, and the binding [3] was “binds”.
For “endogenous SENP3 (from UniProt Q9H4L4 1-574) (enzyme)”, the binding [4] was “binds”.
